Reference: the supplement of paper PMC6411743
± gives the standard deviation of the averaged measurements. The list shows a part of the results.

By UniProt entry, the sequences of proteins in these tests, tags left out. Where a name states a change or a piece, a line headed by the entry shows the natural chain unless it says otherwise.
UniProt Q13111, whole entry: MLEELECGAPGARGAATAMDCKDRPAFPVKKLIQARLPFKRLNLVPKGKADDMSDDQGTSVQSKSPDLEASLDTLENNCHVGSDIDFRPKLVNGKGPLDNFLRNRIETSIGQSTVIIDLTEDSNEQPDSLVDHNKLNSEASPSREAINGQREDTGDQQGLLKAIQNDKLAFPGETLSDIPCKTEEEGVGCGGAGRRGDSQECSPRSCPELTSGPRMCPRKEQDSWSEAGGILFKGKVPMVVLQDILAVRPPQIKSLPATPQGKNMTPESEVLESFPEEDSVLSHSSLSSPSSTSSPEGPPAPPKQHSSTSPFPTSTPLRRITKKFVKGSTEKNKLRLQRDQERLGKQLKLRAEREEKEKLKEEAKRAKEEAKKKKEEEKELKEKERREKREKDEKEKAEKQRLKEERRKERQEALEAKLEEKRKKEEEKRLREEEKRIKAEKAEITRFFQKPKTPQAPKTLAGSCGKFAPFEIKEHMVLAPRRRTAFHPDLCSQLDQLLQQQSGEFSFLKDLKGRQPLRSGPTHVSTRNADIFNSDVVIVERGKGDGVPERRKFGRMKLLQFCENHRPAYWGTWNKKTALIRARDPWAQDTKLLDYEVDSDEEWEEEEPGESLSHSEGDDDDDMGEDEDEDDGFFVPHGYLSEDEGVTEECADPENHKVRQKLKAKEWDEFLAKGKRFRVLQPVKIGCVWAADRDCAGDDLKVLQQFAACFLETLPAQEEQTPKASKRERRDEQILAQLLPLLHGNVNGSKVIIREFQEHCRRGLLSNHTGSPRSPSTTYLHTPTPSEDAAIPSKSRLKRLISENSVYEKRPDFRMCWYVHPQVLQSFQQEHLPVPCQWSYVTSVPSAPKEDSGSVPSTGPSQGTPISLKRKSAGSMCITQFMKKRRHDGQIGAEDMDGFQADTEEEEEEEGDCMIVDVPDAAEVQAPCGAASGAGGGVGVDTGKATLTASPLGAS
UniProt Q12765: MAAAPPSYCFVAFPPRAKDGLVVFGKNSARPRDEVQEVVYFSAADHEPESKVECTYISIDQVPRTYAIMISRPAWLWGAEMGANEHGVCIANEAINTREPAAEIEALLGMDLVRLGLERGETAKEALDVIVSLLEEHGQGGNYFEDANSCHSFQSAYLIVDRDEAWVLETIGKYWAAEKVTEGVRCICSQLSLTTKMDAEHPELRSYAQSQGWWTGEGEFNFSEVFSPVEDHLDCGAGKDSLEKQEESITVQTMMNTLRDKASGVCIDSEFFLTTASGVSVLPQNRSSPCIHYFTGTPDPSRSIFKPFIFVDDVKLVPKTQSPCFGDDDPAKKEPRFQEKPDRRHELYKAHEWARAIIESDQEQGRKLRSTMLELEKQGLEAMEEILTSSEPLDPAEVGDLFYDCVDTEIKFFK
UniProt Q13151: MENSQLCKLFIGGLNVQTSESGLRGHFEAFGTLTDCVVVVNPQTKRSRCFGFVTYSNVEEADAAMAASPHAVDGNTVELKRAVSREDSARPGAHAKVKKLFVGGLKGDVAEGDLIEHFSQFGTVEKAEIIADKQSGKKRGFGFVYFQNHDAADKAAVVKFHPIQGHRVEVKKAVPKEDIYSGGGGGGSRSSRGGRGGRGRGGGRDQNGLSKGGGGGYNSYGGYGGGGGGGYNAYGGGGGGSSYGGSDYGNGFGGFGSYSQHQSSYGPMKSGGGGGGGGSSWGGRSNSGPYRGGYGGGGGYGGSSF
UniProt Q13057: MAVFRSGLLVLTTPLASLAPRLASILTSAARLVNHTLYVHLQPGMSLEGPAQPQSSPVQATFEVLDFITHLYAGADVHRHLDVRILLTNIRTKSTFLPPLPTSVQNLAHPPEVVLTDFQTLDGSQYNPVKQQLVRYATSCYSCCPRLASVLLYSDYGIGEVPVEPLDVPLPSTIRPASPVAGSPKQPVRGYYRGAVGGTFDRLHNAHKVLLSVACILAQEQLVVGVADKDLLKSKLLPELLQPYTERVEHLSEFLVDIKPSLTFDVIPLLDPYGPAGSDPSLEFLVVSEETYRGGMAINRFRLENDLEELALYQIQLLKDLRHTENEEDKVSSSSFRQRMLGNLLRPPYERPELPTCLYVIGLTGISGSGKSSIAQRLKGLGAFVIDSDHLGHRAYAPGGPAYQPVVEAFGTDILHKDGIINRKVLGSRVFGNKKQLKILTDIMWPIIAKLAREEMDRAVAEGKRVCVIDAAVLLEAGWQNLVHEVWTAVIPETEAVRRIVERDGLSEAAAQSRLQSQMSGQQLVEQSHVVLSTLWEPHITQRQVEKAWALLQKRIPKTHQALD
UniProt Q08378: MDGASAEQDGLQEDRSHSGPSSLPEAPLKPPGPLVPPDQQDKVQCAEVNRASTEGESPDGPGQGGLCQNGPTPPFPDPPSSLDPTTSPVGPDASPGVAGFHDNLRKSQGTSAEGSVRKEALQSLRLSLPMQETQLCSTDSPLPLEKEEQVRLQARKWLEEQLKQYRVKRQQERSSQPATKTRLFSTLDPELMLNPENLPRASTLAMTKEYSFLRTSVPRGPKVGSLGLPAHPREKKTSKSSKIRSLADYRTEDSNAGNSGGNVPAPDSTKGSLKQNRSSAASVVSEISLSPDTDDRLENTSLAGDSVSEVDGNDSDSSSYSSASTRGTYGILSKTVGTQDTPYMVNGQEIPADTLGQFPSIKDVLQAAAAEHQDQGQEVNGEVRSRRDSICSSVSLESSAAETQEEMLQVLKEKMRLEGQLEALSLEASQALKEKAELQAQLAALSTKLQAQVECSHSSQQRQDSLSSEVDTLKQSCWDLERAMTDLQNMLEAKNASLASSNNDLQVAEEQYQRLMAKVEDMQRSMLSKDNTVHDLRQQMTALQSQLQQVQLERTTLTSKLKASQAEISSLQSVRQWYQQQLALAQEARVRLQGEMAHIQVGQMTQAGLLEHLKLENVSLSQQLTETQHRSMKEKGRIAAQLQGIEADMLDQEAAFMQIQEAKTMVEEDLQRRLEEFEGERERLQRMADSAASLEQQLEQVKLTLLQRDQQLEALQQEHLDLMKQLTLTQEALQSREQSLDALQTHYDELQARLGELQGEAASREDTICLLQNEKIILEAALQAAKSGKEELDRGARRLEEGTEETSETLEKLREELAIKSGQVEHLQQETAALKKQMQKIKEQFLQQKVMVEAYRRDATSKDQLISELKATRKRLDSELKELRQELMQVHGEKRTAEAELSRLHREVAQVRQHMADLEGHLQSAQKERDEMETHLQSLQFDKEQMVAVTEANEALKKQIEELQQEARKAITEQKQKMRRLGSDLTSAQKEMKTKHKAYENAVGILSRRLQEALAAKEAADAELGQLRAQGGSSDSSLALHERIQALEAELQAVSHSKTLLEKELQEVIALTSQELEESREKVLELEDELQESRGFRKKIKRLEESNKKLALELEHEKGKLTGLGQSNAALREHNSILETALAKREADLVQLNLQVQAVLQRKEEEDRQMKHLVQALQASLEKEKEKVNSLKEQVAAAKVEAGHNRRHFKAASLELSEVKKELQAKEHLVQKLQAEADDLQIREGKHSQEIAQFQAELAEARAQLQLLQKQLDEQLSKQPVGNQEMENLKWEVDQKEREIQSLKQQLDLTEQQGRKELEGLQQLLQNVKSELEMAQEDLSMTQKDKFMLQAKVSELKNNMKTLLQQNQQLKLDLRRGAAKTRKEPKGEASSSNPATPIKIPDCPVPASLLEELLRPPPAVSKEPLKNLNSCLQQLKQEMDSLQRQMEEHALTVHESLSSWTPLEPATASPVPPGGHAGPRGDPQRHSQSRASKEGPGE
UniProt Q13243: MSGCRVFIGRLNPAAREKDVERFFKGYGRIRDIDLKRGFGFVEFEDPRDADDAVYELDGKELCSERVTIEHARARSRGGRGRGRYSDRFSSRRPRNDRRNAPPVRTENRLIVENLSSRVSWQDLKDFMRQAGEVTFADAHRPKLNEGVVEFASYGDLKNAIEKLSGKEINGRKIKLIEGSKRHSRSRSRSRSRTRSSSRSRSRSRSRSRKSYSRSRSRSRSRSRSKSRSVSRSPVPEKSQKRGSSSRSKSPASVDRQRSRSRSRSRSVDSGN
UniProt Q09472, whole entry: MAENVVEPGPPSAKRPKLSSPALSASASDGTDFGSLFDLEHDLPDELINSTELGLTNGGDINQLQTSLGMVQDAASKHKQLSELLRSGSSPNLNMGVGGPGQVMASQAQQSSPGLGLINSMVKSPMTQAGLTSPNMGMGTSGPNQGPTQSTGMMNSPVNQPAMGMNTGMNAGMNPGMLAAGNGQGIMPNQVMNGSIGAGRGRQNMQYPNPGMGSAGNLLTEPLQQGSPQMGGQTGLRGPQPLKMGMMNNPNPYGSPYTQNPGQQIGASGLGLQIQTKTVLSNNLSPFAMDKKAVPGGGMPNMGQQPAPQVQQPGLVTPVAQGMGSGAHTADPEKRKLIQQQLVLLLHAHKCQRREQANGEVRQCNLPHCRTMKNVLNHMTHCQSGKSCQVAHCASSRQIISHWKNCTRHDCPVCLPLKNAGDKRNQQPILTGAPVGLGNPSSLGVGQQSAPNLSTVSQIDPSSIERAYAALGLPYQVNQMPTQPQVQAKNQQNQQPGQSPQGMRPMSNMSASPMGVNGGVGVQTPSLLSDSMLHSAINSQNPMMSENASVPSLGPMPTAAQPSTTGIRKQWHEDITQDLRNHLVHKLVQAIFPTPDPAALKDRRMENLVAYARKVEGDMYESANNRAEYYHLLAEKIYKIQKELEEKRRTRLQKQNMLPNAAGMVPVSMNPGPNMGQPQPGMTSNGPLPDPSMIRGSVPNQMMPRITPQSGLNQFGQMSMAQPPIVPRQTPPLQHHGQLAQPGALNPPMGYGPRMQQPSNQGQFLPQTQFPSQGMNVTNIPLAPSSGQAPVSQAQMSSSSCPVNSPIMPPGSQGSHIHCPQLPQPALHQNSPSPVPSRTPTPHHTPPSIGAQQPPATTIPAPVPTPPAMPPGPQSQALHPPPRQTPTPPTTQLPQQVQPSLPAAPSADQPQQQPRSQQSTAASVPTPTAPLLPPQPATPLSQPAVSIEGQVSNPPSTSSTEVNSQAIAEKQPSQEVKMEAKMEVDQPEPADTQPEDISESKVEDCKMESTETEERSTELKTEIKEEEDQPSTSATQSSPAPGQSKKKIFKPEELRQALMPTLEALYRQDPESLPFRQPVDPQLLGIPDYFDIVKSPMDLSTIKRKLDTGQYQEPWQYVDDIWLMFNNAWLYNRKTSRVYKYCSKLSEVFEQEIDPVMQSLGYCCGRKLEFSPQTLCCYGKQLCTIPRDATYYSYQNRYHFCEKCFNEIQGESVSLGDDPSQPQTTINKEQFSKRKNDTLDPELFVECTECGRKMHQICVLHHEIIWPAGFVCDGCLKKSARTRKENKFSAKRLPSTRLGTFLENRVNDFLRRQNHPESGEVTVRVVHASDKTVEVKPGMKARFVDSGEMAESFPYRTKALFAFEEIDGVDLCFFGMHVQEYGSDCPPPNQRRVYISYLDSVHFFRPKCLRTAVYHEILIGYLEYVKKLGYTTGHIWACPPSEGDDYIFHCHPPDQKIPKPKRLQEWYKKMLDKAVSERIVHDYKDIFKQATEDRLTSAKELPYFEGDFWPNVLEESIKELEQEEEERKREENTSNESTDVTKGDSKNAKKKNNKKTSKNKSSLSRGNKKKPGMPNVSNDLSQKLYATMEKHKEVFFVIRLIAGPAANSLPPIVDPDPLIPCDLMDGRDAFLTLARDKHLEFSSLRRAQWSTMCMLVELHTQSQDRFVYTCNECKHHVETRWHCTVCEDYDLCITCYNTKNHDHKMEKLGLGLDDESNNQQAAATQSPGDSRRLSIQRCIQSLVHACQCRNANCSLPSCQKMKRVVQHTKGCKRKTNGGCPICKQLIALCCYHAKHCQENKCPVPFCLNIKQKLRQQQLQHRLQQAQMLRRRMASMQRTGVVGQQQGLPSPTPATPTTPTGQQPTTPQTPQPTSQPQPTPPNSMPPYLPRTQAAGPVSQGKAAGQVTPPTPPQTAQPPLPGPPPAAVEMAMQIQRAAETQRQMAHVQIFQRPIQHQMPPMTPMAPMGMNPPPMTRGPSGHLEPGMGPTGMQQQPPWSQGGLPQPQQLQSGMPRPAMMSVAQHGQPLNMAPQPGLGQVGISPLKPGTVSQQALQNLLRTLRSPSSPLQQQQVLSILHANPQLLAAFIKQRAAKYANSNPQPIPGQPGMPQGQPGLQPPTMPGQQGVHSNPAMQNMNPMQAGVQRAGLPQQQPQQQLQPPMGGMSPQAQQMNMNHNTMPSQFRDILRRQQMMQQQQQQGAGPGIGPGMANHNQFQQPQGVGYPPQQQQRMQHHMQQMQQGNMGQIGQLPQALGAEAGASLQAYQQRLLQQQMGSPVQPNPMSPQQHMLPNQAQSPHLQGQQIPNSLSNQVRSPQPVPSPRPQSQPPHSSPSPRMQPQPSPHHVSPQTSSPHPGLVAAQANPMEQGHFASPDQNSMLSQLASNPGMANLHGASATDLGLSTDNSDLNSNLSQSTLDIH

Compound: Nc1nc2c(ncn2[C@@H]2O[C@H](COP(=O)(O)OP(=O)(O)OP(=O)(O)O)[C@@H](O)[C@H]2O)c(=O)[nH]1 [guanosine triphosphate]
Experiment: NP40-soluble protein abundance relative to vehicle (solubility fold change) (ratio); higher = more soluble protein in presence of GTP
Method in brief: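 Data come from three independent experiments in which Dounce-homogenised Jurkat crude lysate was treated at eight concentrations from 0.1 to 10 mM. Treatment ran 10 min at room temperature and then 3 min at 37 °C, after which 0.8% NP40 and benzonase were added for 60 min at 4 °C before ultracentrifugation. The supernatant underwent TMT labelling and LC-MS/MS, and vsn-normalised intensities were expressed as fold change against the detergent-processed vehicle in each replicate.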

Row | Target | NP40-soluble protein abundance (concentration: 0.1mM) | NP40-soluble protein abundance (concentration: 0.5mM) | NP40-soluble protein abundance (concentration: 1mM) | NP40-soluble protein abundance (concentration: 2mM) | NP40-soluble protein abundance (concentration: 4mM) | NP40-soluble protein abundance (concentration: 6mM) | NP40-soluble protein abundance (concentration: 8mM) | NP40-soluble protein abundance (concentration: 10mM)
1 | UniProt Q13868 and related entries | 0.973 ± 0.089 | 0.996 ± 0.063 | 0.928 ± 0.032 | 1.06 ± 0.12 | 1.07 ± 0.026 | 1.1 ± 0.12 | 1.04 ± 0.033 | 1.06 ± 0.084
2 | UniProt Q14005 and related entries | 0.979 ± 0.016 | 0.946 ± 0.031 | 0.997 ± 0.049 | 0.93 ± 0.057 | 0.943 ± 0.1 | 0.931 ± 0.083 | 0.958 ± 0.034 | 0.95 ± 0.045
3 | UniProt Q03188 | 0.957 ± 0.11 | 0.964 ± 0.052 | 1.05 ± 0.095 | 0.973 ± 0.098 | 0.991 ± 0.12 | 1 ± 0.1 | 1.02 ± 0.11 | 1.07 ± 0.1
4 | CHAF1A (UniProt Q13111) | 0.999 ± 0.071 | 0.994 ± 0.073 | 1 ± 0.074 | 0.974 ± 0.068 | 1.01 ± 0.075 | 0.992 ± 0.063 | 1.07 ± 0.092 | 1.05 ± 0.086
5 | UniProt Q14644 and related entries | 1.12 ± 0.017 | 1.09 ± 0.028 | 1.06 ± 0.016 | 0.984 ± 0.046 | 1.08 ± 0.084 | 0.949 ± 0.083 | 0.916 ± 0.017 | 0.897 ± 0.02
6 | UniProt Q12765 and related entries | 0.967 ± 0.015 | 1.01 ± 0.034 | 0.951 ± 0.031 | 0.943 ± 0.037 | 0.937 ± 0.046 | 0.943 ± 0.022 | 0.949 ± 0.029 | 0.934 ± 0.031
7 | CUL3 (UniProt Q13618) | 1.04 ± 0.046 | 1.05 ± 0.066 | 0.956 ± 0.015 | 0.973 ± 0.058 | 0.938 ± 0.049 | 0.932 ± 0.03 | 0.917 ± 0.011 | 0.886 ± 0.059
8 | UniProt Q13469 and related entries | 0.995 ± 0.018 | 0.969 ± 0.028 | 0.971 ± 0.048 | 0.935 ± 0.032 | 0.933 ± 0.054 | 0.913 ± 0.034 | 0.963 ± 0.016 | 0.931 ± 0.038
9 | TFDP2 (UniProt Q14188) | 1.03 ± 0.16 | 1.07 ± 0.079 | 1.12 ± 0.044 | 1.09 ± 0.13 | 1.04 ± 0.16 | 1.07 ± 0.1 | 1.09 ± 0.034 | 1.05 ± 0.1
10 | UniProt Q13363 and related entries | 1.06 ± 0.029 | 1.02 ± 0.064 | 0.921 ± 0.046 | 0.933 ± 0.084 | 0.944 ± 0.067 | 0.905 ± 0.0099 | 0.852 ± 0.12 | 0.835 ± 0.085
11 | FRG1 (UniProt Q14331) | 1.02 ± 0.041 | 1.07 ± 0.056 | 1.03 ± 0.032 | 1.04 ± 0.023 | 1.1 ± 0.046 | 1.11 ± 0.038 | 1.18 ± 0.08 | 1.15 ± 0.056
12 | FKBP5 (UniProt Q13451) | 0.977 ± 0.017 | 0.994 ± 0.022 | 0.982 ± 0.05 | 0.927 ± 0.052 | 0.919 ± 0.052 | 0.925 ± 0.066 | 0.952 ± 0.034 | 0.891 ± 0.046
13 | HNRNPA0 (UniProt Q13151) | 0.975 ± 0.038 | 1 ± 0.024 | 1 ± 0.038 | 0.989 ± 0.05 | 0.967 ± 0.035 | 1 ± 0.046 | 1.01 ± 0.052 | 0.986 ± 0.058
14 | UniProt Q01826 and related entries | 0.968 ± 0.019 | 0.937 ± 0.05 | 1.01 ± 0.036 | 0.996 ± 0.06 | 0.984 ± 0.038 | 0.969 ± 0.029 | 0.975 ± 0.029 | 0.982 ± 0.05
15 | UniProt Q12873 and related entries | 1.06 ± 0.054 | 1.12 ± 0.12 | 1.12 ± 0.13 | 1.22 ± 0.19 | 1.25 ± 0.21 | 1.27 ± 0.19 | 1.28 ± 0.19 | 1.28 ± 0.17
16 | UniProt Q13057 and related entries | 0.998 ± 0.055 | 1.01 ± 0.046 | 1.02 ± 0.033 | 1.026 ± 0.01 | 0.927 ± 0.035 | 0.953 ± 0.053 | 0.893 ± 0.049 | 0.958 ± 0.037
17 | EIF3A (UniProt Q14152) | 1.05 ± 0.031 | 1.08 ± 0.018 | 1.09 ± 0.062 | 1.18 ± 0.12 | 1.38 ± 0.23 | 1.53 ± 0.28 | 1.74 ± 0.34 | 1.94 ± 0.38
18 | UniProt Q14153 and related entries | 0.98 ± 0.13 | 1 ± 0.19 | 1.03 ± 0.016 | 0.968 ± 0.074 | 0.923 ± 0.036 | 0.927 ± 0.077 | 0.905 ± 0.044 | 0.9312 ± 0.0031
19 | SAFB2 (UniProt Q14151) | 0.948 ± 0.091 | 0.972 ± 0.1 | 0.982 ± 0.066 | 1.01 ± 0.096 | 1.04 ± 0.084 | 1.07 ± 0.081 | 1.14 ± 0.078 | 1.2 ± 0.079
20 | UniProt Q14643 and related entries | 1.03 ± 0.031 | 1.06 ± 0.069 | 1.06 ± 0.011 | 1.05 ± 0.11 | 1.03 ± 0.074 | 1.05 ± 0.054 | 1.03 ± 0.093 | 1.01 ± 0.1
21 | GOLGA3 (UniProt Q08378) | 0.982 ± 0.076 | 0.995 ± 0.033 | 1.04 ± 0.041 | 1.01 ± 0.057 | 1.02 ± 0.039 | 1.03 ± 0.038 | 1.06 ± 0.074 | 1.07 ± 0.082
22 | URB2 (UniProt Q14146) | 1.21 ± 0.18 | 1.08 ± 0.28 | 1.11 ± 0.23 | 1.29 ± 0.25 | 1.39 ± 0.2 | 1.45 ± 0.24 | 1.6 ± 0.34 | 1.63 ± 0.34
23 | CDR2 (UniProt Q01850) | 1.03 ± 0.042 | 0.998 ± 0.1 | 1.02 ± 0.14 | 1.06 ± 0.057 | 0.989 ± 0.11 | 1.04 ± 0.11 | 1.01 ± 0.13 | 1.02 ± 0.075
24 | UniProt Q13190 and related entries | 0.972 ± 0.046 | 0.936 ± 0.026 | 0.977 ± 0.049 | 0.975 ± 0.047 | 1.03 ± 0.055 | 0.962 ± 0.036 | 0.932 ± 0.045 | 0.957 ± 0.053
25 | RPL6 (UniProt Q02878) | 0.975 ± 0.041 | 1.02 ± 0.099 | 1.03 ± 0.12 | 0.999 ± 0.2 | 0.899 ± 0.19 | 0.865 ± 0.18 | 0.706 ± 0.14 | 0.882 ± 0.21
26 | CTDSPL2 (UniProt Q05D32) | 0.984 ± 0.059 | 0.968 ± 0.074 | 1.03 ± 0.071 | 1.05 ± 0.062 | 1.15 ± 0.048 | 1.15 ± 0.058 | 1.2 ± 0.041 | 1.29 ± 0.047
27 | PPIL2 (UniProt Q13356) | 1.12 ± 0.045 | 1.1 ± 0.088 | 1.13 ± 0.044 | 1.11 ± 0.11 | 1.18 ± 0.049 | 1.15 ± 0.11 | 1.17 ± 0.085 | 1.14 ± 0.11
28 | UniProt Q13045 and related entries | 1.026 ± 0.01 | 1.05 ± 0.032 | 0.992 ± 0.017 | 0.988 ± 0.036 | 1 ± 0.033 | 0.983 ± 0.05 | 0.973 ± 0.021 | 0.944 ± 0.0043
29 | UniProt Q13243 | 0.945 ± 0.1 | 1.12 ± 0.055 | 1.25 ± 0.13 | 1.23 ± 0.17 | 1.27 ± 0.21 | 1.4 ± 0.26 | 1.58 ± 0.34 | 1.6 ± 0.37
30 | EP300 (UniProt Q09472) | 1.11 ± 0.037 | 1.05 ± 0.051 | 1.05 ± 0.053 | 1.05 ± 0.071 | 1.04 ± 0.064 | 0.993 ± 0.053 | 1.02 ± 0.076 | 1.01 ± 0.047

Looked up above:
UniProt Q12873 and related entries – NP40-soluble protein abundance (concentration: 0.1mM): 1.06 ± 0.054
PPIL2 (UniProt Q13356) – NP40-soluble protein abundance (concentration: 6mM): 1.15 ± 0.11

Two entries drawn at random from the list so far:
Row | Target | NP40-soluble protein abundance (concentration: 0.1mM) | NP40-soluble protein abundance (concentration: 0.5mM) | NP40-soluble protein abundance (concentration: 1mM) | NP40-soluble protein abundance (concentration: 2mM) | NP40-soluble protein abundance (concentration: 4mM) | NP40-soluble protein abundance (concentration: 6mM) | NP40-soluble protein abundance (concentration: 8mM) | NP40-soluble protein abundance (concentration: 10mM)
30 | EP300 (UniProt Q09472) | 1.11 ± 0.037 | 1.05 ± 0.051 | 1.05 ± 0.053 | 1.05 ± 0.071 | 1.04 ± 0.064 | 0.993 ± 0.053 | 1.02 ± 0.076 | 1.01 ± 0.047
5 | UniProt Q14644 and related entries | 1.12 ± 0.017 | 1.09 ± 0.028 | 1.06 ± 0.016 | 0.984 ± 0.046 | 1.08 ± 0.084 | 0.949 ± 0.083 | 0.916 ± 0.017 | 0.897 ± 0.02
